Reference: patent publication US10662235B2, “Cysteine engineered fibronectin type III domain binding molecules” (Janssen Biotech, Inc., priority 2016, dated 2020)
Some entries share one result that the patent states for a list of compounds.

target: EGFR (Homo sapiens, UniProt P00533); assay: EGFR binding assay (ELISA) of NEM-conjugated cysteine variants relative to parent; conditions: 10 nM protein, exclusion criterion

Molecule | EGFR binding signal as % of the signal observed with P54AR4-83v2 parent [%]
F31C: cysteine variant of P54AR4-83v2 (protein) LPAPKNLVVSEVTEDSARLSWDDPWAFYESCLIQYQESEKVGEAIVLTVPGSERSYDLTGLKPGTEYTVSIYGVHNVYKDTNMRGLPLSAIFTT | < 65
S55C: cysteine variant of P54AR4-83v2 (protein) LPAPKNLVVSEVTEDSARLSWDDPWAFYESFLIQYQESEKVGEAIVLTVPGSERCYDLTGLKPGTEYTVSIYGVHNVYKDTNMRGLPLSAIFTT | < 65
G73C: cysteine variant of P54AR4-83v2 (protein) LPAPKNLVVSEVTEDSARLSWDDPWAFYESFLIQYQESEKVGEAIVLTVPGSERSYDLTGLKPGTEYTVSIYCVHNVYKDTNMRGLPLSAIFTT | < 65
H75C: cysteine variant of P54AR4-83v2 (protein) LPAPKNLVVSEVTEDSARLSWDDPWAFYESFLIQYQESEKVGEAIVLTVPGSERSYDLTGLKPGTEYTVSIYGVCNVYKDTNMRGLPLSAIFTT | < 65
V77C: cysteine variant of P54AR4-83v2 (protein) LPAPKNLVVSEVTEDSARLSWDDPWAFYESFLIQYQESEKVGEAIVLTVPGSERSYDLTGLKPGTEYTVSIYGVHNCYKDTNMRGLPLSAIFTT | < 65
Y78C: cysteine variant of P54AR4-83v2 (protein) LPAPKNLVVSEVTEDSARLSWDDPWAFYESFLIQYQESEKVGEAIVLTVPGSERSYDLTGLKPGTEYTVSIYGVHNVCKDTNMRGLPLSAIFTT | < 65
T81C: cysteine variant of P54AR4-83v2 (protein) LPAPKNLVVSEVTEDSARLSWDDPWAFYESFLIQYQESEKVGEAIVLTVPGSERSYDLTGLKPGTEYTVSIYGVHNVYKDCNMRGLPLSAIFTT | < 65
N82C: cysteine variant of P54AR4-83v2 (protein) LPAPKNLVVSEVTEDSARLSWDDPWAFYESFLIQYQESEKVGEAIVLTVPGSERSYDLTGLKPGTEYTVSIYGVHNVYKDTCMRGLPLSAIFTT | < 65
M83C: cysteine variant of P54AR4-83v2 (protein) LPAPKNLVVSEVTEDSARLSWDDPWAFYESFLIQYQESEKVGEAIVLTVPGSERSYDLTGLKPGTEYTVSIYGVHNVYKDTNCRGLPLSAIFTT | < 65
G85C: cysteine variant of P54AR4-83v2 (protein) LPAPKNLVVSEVTEDSARLSWDDPWAFYESFLIQYQESEKVGEAIVLTVPGSERSYDLTGLKPGTEYTVSIYGVHNVYKDTNMRCLPLSAIFTT | < 65
P2C: cysteine variant of P54AR4-83v2 (protein) LCAPKNLVVSEVTEDSARLSWDDPWAFYESFLIQYQESEKVGEAIVLTVPGSERSYDLTGLKPGTEYTVSIYGVHNVYKDTNMRGLPLSAIFTT | < 65
A3C: cysteine variant of P54AR4-83v2 (protein) LPCPKNLVVSEVTEDSARLSWDDPWAFYESFLIQYQESEKVGEAIVLTVPGSERSYDLTGLKPGTEYTVSIYGVHNVYKDTNMRGLPLSAIFTT | < 65
P4C: cysteine variant of P54AR4-83v2 (protein) LPACKNLVVSEVTEDSARLSWDDPWAFYESFLIQYQESEKVGEAIVLTVPGSERSYDLTGLKPGTEYTVSIYGVHNVYKDTNMRGLPLSAIFTT | < 65
K5C: cysteine variant of P54AR4-83v2 (protein) LPAPCNLVVSEVTEDSARLSWDDPWAFYESFLIQYQESEKVGEAIVLTVPGSERSYDLTGLKPGTEYTVSIYGVHNVYKDTNMRGLPLSAIFTT | < 65
L7C: cysteine variant of P54AR4-83v2 (protein) LPAPKNCVVSEVTEDSARLSWDDPWAFYESFLIQYQESEKVGEAIVLTVPGSERSYDLTGLKPGTEYTVSIYGVHNVYKDTNMRGLPLSAIFTT | < 65
D23C: cysteine variant of P54AR4-83v2 (protein) LPAPKNLVVSEVTEDSARLSWDCPWAFYESFLIQYQESEKVGEAIVLTVPGSERSYDLTGLKPGTEYTVSIYGVHNVYKDTNMRGLPLSAIFTT | < 65
W25C: cysteine variant of P54AR4-83v2 (protein) LPAPKNLVVSEVTEDSARLSWDDPCAFYESFLIQYQESEKVGEAIVLTVPGSERSYDLTGLKPGTEYTVSIYGVHNVYKDTNMRGLPLSAIFTT | < 65
F27C: cysteine variant of P54AR4-83v2 (protein) LPAPKNLVVSEVTEDSARLSWDDPWACYESFLIQYQESEKVGEAIVLTVPGSERSYDLTGLKPGTEYTVSIYGVHNVYKDTNMRGLPLSAIFTT | < 65
Y28C: cysteine variant of P54AR4-83v2 (protein) LPAPKNLVVSEVTEDSARLSWDDPWAFCESFLIQYQESEKVGEAIVLTVPGSERSYDLTGLKPGTEYTVSIYGVHNVYKDTNMRGLPLSAIFTT | < 65
